Data: PMC6989212
Results are given in words; binding and its absence hold for the method and conditions named. For some assays here: In cells and extracts the contact can be indirect. Some results given as binding are weak or reduced against the parent protein; the word gives no strength. For some assays here: Sequences can lack the tags named with a protein.

The chains behind the UniProt entries cited, without tags or fusion partners.
UniProt P32568: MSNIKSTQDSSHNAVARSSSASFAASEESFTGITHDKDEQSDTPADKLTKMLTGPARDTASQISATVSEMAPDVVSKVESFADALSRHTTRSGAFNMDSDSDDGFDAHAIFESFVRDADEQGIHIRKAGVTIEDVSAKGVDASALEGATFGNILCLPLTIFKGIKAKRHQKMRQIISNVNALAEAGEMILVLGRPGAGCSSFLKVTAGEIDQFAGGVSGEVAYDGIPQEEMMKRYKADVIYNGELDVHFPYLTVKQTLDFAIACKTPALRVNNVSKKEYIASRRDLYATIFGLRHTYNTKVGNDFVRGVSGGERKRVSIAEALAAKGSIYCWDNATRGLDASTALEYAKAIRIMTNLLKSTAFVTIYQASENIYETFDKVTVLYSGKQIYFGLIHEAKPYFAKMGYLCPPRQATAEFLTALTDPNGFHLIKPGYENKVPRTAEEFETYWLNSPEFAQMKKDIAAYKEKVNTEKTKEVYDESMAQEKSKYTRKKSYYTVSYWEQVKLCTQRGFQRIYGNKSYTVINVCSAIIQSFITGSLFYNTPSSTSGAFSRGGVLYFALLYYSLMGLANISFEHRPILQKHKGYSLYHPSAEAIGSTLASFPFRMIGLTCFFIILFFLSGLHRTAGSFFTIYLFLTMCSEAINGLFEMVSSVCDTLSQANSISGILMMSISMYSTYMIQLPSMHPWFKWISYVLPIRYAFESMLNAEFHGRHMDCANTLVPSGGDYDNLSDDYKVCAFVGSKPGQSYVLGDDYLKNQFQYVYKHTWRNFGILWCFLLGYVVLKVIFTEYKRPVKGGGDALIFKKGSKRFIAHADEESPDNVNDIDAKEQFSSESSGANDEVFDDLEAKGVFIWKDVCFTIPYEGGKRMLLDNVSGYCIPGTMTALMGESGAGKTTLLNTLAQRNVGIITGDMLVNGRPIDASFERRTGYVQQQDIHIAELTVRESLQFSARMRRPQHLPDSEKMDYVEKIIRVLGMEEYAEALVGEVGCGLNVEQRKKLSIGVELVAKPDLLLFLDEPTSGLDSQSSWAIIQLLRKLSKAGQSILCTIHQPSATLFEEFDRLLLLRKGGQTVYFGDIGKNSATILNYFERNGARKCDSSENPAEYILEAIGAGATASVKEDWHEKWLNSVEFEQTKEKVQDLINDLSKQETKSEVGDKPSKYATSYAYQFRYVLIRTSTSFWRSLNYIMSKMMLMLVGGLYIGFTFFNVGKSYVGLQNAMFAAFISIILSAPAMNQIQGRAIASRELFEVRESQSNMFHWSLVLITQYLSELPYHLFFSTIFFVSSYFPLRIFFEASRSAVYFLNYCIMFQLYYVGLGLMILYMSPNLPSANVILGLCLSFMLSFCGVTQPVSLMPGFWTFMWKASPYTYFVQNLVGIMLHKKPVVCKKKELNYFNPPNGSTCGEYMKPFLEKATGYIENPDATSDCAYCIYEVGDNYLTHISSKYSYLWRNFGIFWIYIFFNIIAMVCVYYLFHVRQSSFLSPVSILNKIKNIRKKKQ
UniProt P33302: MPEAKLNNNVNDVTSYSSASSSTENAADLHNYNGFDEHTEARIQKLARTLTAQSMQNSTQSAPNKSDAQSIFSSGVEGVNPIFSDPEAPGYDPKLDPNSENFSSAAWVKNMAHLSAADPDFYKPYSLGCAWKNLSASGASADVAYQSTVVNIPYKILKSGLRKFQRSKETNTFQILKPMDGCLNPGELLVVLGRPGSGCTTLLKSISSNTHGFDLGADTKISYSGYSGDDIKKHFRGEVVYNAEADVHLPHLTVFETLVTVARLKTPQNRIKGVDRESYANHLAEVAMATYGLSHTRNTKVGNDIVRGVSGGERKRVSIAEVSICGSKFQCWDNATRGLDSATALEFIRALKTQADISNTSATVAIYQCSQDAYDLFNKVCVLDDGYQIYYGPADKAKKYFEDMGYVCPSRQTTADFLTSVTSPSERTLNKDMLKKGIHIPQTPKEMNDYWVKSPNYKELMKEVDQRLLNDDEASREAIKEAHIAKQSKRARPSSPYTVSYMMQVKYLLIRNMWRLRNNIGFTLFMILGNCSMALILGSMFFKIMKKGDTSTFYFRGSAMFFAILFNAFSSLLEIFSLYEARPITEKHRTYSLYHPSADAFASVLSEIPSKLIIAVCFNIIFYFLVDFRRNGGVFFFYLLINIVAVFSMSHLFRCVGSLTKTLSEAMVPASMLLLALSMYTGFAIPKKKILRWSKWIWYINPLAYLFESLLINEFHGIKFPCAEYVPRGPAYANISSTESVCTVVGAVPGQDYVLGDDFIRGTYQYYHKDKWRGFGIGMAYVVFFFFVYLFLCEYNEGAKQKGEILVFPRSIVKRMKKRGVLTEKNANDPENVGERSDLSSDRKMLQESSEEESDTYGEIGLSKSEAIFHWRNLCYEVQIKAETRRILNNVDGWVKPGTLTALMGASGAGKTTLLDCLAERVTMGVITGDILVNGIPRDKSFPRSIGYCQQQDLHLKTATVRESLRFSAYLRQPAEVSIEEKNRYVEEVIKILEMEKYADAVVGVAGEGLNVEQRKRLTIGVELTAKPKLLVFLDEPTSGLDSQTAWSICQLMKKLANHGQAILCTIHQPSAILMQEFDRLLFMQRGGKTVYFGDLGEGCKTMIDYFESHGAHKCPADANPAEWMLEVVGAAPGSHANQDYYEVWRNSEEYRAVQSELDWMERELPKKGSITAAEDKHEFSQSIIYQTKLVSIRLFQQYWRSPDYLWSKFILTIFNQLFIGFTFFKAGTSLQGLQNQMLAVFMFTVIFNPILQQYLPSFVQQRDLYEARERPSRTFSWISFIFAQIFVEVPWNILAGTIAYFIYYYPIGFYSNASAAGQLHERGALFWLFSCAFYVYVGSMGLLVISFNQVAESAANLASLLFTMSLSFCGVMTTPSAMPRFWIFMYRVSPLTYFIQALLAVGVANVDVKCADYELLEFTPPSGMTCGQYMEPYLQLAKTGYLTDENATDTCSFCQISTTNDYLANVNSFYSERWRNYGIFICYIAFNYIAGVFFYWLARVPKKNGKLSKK

T1: Yor1 (PCA strains, mDHFR fragment fusions) (S. cerevisiae), P53049
T1 chain: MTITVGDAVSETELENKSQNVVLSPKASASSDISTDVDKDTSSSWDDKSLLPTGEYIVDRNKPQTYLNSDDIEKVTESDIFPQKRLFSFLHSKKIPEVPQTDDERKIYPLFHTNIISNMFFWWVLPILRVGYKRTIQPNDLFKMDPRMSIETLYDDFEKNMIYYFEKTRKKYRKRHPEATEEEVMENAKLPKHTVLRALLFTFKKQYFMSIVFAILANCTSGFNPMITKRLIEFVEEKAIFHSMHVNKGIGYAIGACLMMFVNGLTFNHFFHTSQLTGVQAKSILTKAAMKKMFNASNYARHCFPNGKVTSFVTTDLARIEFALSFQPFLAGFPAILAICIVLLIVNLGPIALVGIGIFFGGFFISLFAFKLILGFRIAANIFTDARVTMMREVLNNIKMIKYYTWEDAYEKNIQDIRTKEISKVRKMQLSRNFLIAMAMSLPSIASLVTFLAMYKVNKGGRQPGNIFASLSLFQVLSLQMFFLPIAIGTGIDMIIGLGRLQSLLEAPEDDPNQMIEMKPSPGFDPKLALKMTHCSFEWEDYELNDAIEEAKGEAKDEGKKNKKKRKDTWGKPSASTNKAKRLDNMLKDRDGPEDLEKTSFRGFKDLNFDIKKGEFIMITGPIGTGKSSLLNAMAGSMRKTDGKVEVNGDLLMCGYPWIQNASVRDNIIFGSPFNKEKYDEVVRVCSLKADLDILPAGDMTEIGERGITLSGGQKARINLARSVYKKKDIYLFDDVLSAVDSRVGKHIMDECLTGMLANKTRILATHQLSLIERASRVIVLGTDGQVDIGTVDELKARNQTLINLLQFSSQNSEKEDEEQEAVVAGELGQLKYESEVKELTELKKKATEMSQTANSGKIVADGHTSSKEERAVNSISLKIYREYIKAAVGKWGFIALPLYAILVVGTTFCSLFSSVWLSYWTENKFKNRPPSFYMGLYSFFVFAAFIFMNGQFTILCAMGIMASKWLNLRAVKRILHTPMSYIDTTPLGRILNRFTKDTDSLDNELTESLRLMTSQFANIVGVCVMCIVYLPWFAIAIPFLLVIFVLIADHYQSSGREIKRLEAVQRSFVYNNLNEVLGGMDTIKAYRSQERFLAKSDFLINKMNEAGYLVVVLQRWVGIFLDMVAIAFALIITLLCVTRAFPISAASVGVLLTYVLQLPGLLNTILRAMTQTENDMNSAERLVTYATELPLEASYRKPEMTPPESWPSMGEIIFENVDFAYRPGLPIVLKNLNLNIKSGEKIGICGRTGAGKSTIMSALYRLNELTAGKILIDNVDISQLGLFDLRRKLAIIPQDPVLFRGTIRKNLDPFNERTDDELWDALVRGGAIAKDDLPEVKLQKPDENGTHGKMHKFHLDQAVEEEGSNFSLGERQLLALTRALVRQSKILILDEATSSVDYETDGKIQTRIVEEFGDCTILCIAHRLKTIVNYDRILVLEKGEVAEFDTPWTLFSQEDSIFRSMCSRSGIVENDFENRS


Key:
[1] = target: Snq2 (iMYTH bait) (S. cerevisiae) (UniProt P32568); assay: two-hybrid; membrane yeast two-hybrid (MYTH, split ubiquitin); genomically Cub-LexA-VP16-tagged baits, PDR5-NubG prey plasmid; growth on solid medium for 5 days on SD-W, SD-WAH, SD-WAH + 0.05% DMSO, SD-WAH + 25 or 50 uM fluconazole + 0.05% DMSO
[2] = target: T1, Yor1 (PCA strains, mDHFR fragment …); assay: split reporter; DHFR protein-fragment complementation assay (PCA) in diploid yeast; mDHFR-F[1,2] and mDHFR-F[3] fusions; spotted on solid YPD +Hyg +Nat with 2% DMSO, 2% DMSO + 200 ug/mL methotrexate, or 2% DMSO + 200 ug/mL methotrexate + 46.8 uM fluconazole; 72 hours at 30°C; details: remark: other sources report otherwise

Row | Molecule | binding [1] | binding [2]
1 | Pdr5 (MYTH bait and prey constructs) (from UniProt P33302 1-1511) | binds | –
2 | Yor1 (PCA strains, mDHFR fragment fusions), P53049 1-1477 (protein) MTITVGDAVSETELENKSQNVVLSPKASASSDISTDVDKDTSSSWDDKSLLPTGEYIVDRNKPQTYLNSDDIEKVTESDIFPQKRLFSFLHSKKIPEVPQTDDERKIYPLFHTNIISNMFFWWVLPILRVGYKRTIQPNDLFKMDPRMSIETLYDDFEKNMIYYFEKTRKKYRKRHPEATEEEVMENAKLPKHTVLRALLFTFKKQYFMSIVFAILANCTSGFNPMITKRLIEFVEEKAIFHSMHVNKGIGYAIGACLMMFVNGLTFNHFFHTSQLTGVQAKSILTKAAMKKMFNASNYARHCFPNGKVTSFVTTDLARIEFALSFQPFLAGFPAILAICIVLLIVNLGPIALVGIGIFFGGFFISLFAFKLILGFRIAANIFTDARVTMMREVLNNIKMIKYYTWEDAYEKNIQDIRTKEISKVRKMQLSRNFLIAMAMSLPSIASLVTFLAMYKVNKGGRQPGNIFASLSLFQVLSLQMFFLPIAIGTGIDMIIGLGRLQSLLEAPEDDPNQMIEMKPSPGFDPKLALKMTHCSFEWEDYELNDAIEEAKGEAKDEGKKNKKKRKDTWGKPSASTNKAKRLDNMLKDRDGPEDLEKTSFRGFKDLNFDIKKGEFIMITGPIGTGKSSLLNAMAGSMRKTDGKVEVNGDLLMCGYPWIQNASVRDNIIFGSPFNKEKYDEVVRVCSLKADLDILPAGDMTEIGERGITLSGGQKARINLARSVYKKKDIYLFDDVLSAVDSRVGKHIMDECLTGMLANKTRILATHQLSLIERASRVIVLGTDGQVDIGTVDELKARNQTLINLLQFSSQNSEKEDEEQEAVVAGELGQLKYESEVKELTELKKKATEMSQTANSGKIVADGHTSSKEERAVNSISLKIYREYIKAAVGKWGFIALPLYAILVVGTTFCSLFSSVWLSYWTENKFKNRPPSFYMGLYSFFVFAAFIFMNGQFTILCAMGIMASKWLNLRAVKRILHTPMSYIDTTPLGRILNRFTKDTDSLDNELTESLRLMTSQFANIVGVCVMCIVYLPWFAIAIPFLLVIFVLIADHYQSSGREIKRLEAVQRSFVYNNLNEVLGGMDTIKAYRSQERFLAKSDFLINKMNEAGYLVVVLQRWVGIFLDMVAIAFALIITLLCVTRAFPISAASVGVLLTYVLQLPGLLNTILRAMTQTENDMNSAERLVTYATELPLEASYRKPEMTPPESWPSMGEIIFENVDFAYRPGLPIVLKNLNLNIKSGEKIGICGRTGAGKSTIMSALYRLNELTAGKILIDNVDISQLGLFDLRRKLAIIPQDPVLFRGTIRKNLDPFNERTDDELWDALVRGGAIAKDDLPEVKLQKPDENGTHGKMHKFHLDQAVEEEGSNFSLGERQLLALTRALVRQSKILILDEATSSVDYETDGKIQTRIVEEFGDCTILCIAHRLKTIVNYDRILVLEKGEVAEFDTPWTLFSQEDSIFRSMCSRSGIVENDFENRS | – | binds
